Structures are written as SMILES. Whole data set: some 1,600 compounds, median “Hit score” near 0.13, cut for the highest 2% near 0.46. The list shows a part of the results.

Our source for the Hit score values is ChEMBL document CHEMBL4303122, “Identification of potential treatments for COVID-19 through artificial intelligence-enabled phenomic analysis of human cells infected with SARS-CoV-2” (2020).

In this test the test system is SARS-CoV-2. Description: Antiviral activity against SARS-CoV-2 (USA-WA1/2020 strain) measured by imaging in HRCE cells at MOI 0.4 after 96 hrs (reported as hit score from 0-1 for on-disease vs off-disease activity: scores >0.6 considered hits). The test is classed as functional, Homo sapiens.
For `CC1(C)S[C@@H]2[C@H](NC(=O)[C@H](N)c3ccc(O)cc3)C(=O)N2[C@H]1C(=O)[O-].[Na+]` [AMOXICILLIN SODIUM], the Hit score is listed as 0.05468. In turn, `O=C1NCN(c2ccccc2)C12CCN(CCCC(c1ccc(F)cc1)c1ccc(F)cc1)CC2` gave a Hit score of 0.1546. Molecule `CN1[C@@H]2CC[C@H]1C[C@@H](OC(=O)[C@H](CO)c1ccccc1)C2` [HYOSCYAMINE] returned a Hit score of 0.0469. `CCCCC1=NC2(CCCC2)C(=O)N1Cc1ccc(-c2ccccc2-c2nnn[nH]2)cc1` [IRBESARTAN] registered a Hit score of 0.2008. Consider `NC(=O)Cc1cccc(C(=O)c2ccccc2)c1N`, for which the Hit score came out at 0.01515.

In turn, `CCOc1ccccc1OCC1CNCCO1` (stereo unspecified) [VILOXAZINE] had a Hit score of 0.08149. For the molecule `CC[C@H]1OC(=O)[C@H](C)[C@@H](O[C@H]2C[C@@](C)(OC)[C@@H](O)[C@H](C)O2)[C@H](C)[C@@H](O[C@@H]2O[C@H](C)C[C@H](N(C)C)[C@H]2O)[C@](C)(OC)C[C@@H](C)C(=O)[C@H](C)[C@@H](O)[C@]1(C)O` [CLARITHROMYCIN], the Hit score was 0.1189. Molecule `N[C@@H]1CCCCN(c2c(F)cc3c(=O)c(C(=O)O)cn(C4CC4)c3c2Cl)C1` [BESIFLOXACIN] came in with a Hit score of 0.1261. The molecule `CCN(Cc1ccc(Cl)nc1)/C(=C/[N+](=O)[O-])NC` returned a Hit score of 0.05857. With `O=C(Nc1cc(C(F)(F)F)ccc1O)Nc1cc(C(F)(F)F)ccc1O`, the Hit score is on record as 0.158. Molecule `CCCCOC(=O)c1ccc(N)cc1` [BUTAMBEN] yielded a Hit score of 0.2076. The figure for `CC(CCC(=O)O)[C@H]1CCC2C3C[C@H](O)[C@@H]4C[C@H](O)CC[C@]4(C)C3CC[C@@]21C` (stereo partly specified) is 0.1858; for `C[C@H]1O[C@H](O[C@H]2[C@H](O)[C@@H](O)[C@@H](O[C@H]3[C@H](O)[C@@H](O)C(O)O[C@@H]3CO)O[C@@H]2CO)[C@H](O)[C@@H](O)[C@@H]1N[C@H]1C=C(CO)[C@@H](O)[C@H](O)[C@H]1O` (stereo partly specified) [ACARBOSE] it is 0.1888.

Molecule `Cl.OC[C@H]1NC[C@@H](O)[C@@H](O)[C@@H]1O` came in with a Hit score of 0.1457. For `C=C1CC[C@H](O)C/C1=C/C=C1\CCC[C@]2(C)[C@@H]([C@H](C)CCCC(C)(C)O)CC[C@@H]12` [CALCIFEDIOL ANHYDROUS], the Hit score is 0.4579. As for `CCN(CC)CCOC(=O)C(c1ccccc1)C1CCCCC1` (stereo unspecified) [DROFENINE], the figure is 0.258; as for `COc1cc2c(cc1OC)C(=O)C(CC1CCN(Cc3ccccc3)CC1)C2` (stereo unspecified) [DONEPEZIL], 0.173; as for `CC(C)(C)c1ccc(CN2CCN(C(c3ccccc3)c3ccc(Cl)cc3)CC2)cc1` (stereo unspecified) [BUCLIZINE], 0.3205. The figure for `C=CCOc1ccc(CC(=O)O)cc1Cl` [ALCLOFENAC] is 0.04614; for `COC(=O)C1=C(C)NC(C)=C(C(=O)O[C@H]2CCN(Cc3ccccc3)C2)[C@H]1c1cccc([N+](=O)[O-])c1` [BARNIDIPINE] it is -0.001023. The molecule `CC(=O)c1ccc2c(c1)N(CCCN1CCC(CCO)CC1)c1ccccc1S2` [PIPERACETAZINE] showed a Hit score of 0.01497. Molecule `CN1[C@@H]2CC[C@H]1C[C@@H](OC(c1ccccc1)c1ccccc1)C2` [BENZTROPINE] showed a Hit score of 0.1527. In turn, `C[N+]1(C)CCCC(OC(=O)C(O)(c2ccccc2)c2ccccc2)C1` (stereo unspecified) [MEPENZOLATE] returned a Hit score of 0.1869. As for `O=C(CCCN1CCC(O)(c2ccc(Br)cc2)CC1)c1ccc(F)cc1` [BROMPERIDOL], the figure is 0.1419. Molecule `CNCC[C@H](Oc1cccc2ccccc12)c1cccs1` [DULOXETINE] had a Hit score of -0.001677.

Turning to `Cc1c(C(N)=O)cc([N+](=O)[O-])cc1[N+](=O)[O-]` [DINITOLMIDE], the Hit score is reported as 0.07869.

As for `N=C(N)N` [GUANIDINE], the Hit score was 0.2278.

Molecule `CCN(CC)CCOC(=O)C1(c2ccccc2)CCCC1` had a Hit score of 0.1023. The figure for `O=P(O)(O)C(Sc1ccc(Cl)cc1)P(=O)(O)O` [TILUDRONIC ACID] is 0.04613; for `NC(=O)OCCCc1ccccc1` [PHENPROBAMATE] it is 0.1691.

In turn, `COc1cc(/C=C2\CCC/C(=C\c3ccc(O)c(OC)c3)C2=O)ccc1O` [CYCLOVALONE] came in with a Hit score of 0.231. As for `CN1[C@@H]2CC(O)C[C@H]1[C@@H]1O[C@@H]12` (stereo partly specified), the Hit score is reported as 0.127. The molecule `Cc1ncc([N+](=O)[O-])n1CC(O)CCl` (stereo unspecified) [ORNIDAZOLE] came in with a Hit score of 0.1218. Regarding `N#Cc1ccc2[nH]cc(CCCCN3CCN(c4ccc5oc(C(N)=O)cc5c4)CC3)c2c1` [VILAZODONE], the Hit score is listed as 0.1122.

As for `CN1C(C(=O)Nc2ccccn2)=C(O)c2sccc2S1(=O)=O` [TENOXICAM], the Hit score is 0.3342. In the case of `Cc1cccc(C)c1NC(=O)C1CCCCN1C` (stereo unspecified) [MEPIVACAINE], the Hit score was found to be 0.09742. For `FC(F)(F)c1ccc(CNc2ccc(Cc3c[nH]c4ncc(Cl)cc34)cn2)cn1` [PEXIDARTINIB], the Hit score turned out to be 0.2913. For `CC(=O)OCC(=O)[C@@]12OC3(CCCC3)O[C@@H]1C[C@H]1[C@@H]3CCC4=CC(=O)C=C[C@]4(C)[C@@]3(F)[C@@H](O)C[C@@]12C` [AMCINONIDE], the Hit score is on record as -0.04507. As to `Cc1[nH]c(=O)c(C#N)cc1-c1ccncc1` [MILRINONE], the Hit score was determined as 0.05941. The molecule `Cc1ccnc2c1NC(=O)c1cccnc1N2C1CC1` [NEVIRAPINE] registered a Hit score of 0.1032. Molecule `Cc1ccc(/C(=C\CN2CCCC2)c2cccc(/C=C/C(=O)O)n2)cc1` [ACRIVASTINE] came in with a Hit score of 0.1912.

For `CNC(=O)c1cccc(NC(=O)N2CCC(Oc3ccccc3Cl)CC2)c1`, the Hit score amounted to 0.1005. As for `CC(C)(Oc1ccc(Cl)cc1)C(=O)O` [CLOFIBRIC ACID], the figure is 0.1996; as for `O=C(CCCN1CCC(n2c(=O)[nH]c3ccccc32)CC1)c1ccc(F)cc1` [BENPERIDOL], 0.1627. Molecule `COc1ccc(CCNCC(O)COc2cccc(C)c2)cc1OC` (stereo unspecified) [BEVANTOLOL] displayed a Hit score of 0.3675. As for `COc1cc(Nc2ncc(F)c(Nc3ccc4c(n3)NC(=O)C(C)(C)O4)n2)cc(OC)c1OC` [R-406], the figure is 0.1646.

`CN(C)CC/C=C1\c2ccccc2CSc2ccccc21` [DOTHIEPIN] returned a Hit score of 0.2581. As for `N[C@@H]1c2cccnc2[C@H](OC(=O)N2CCC(n3c(=O)[nH]c4ncccc43)CC2)CC[C@H]1c1cccc(F)c1F` [RIMEGEPANT], the Hit score is reported as 0.2662. Molecule `CN1CC(=O)N2[C@H](c3ccc4c(c3)OCO4)c3[nH]c4ccccc4c3C[C@@H]2C1=O` had a Hit score of 0.2898. The figure for `O=C(O)CCCN1C(=O)c2cccc3cccc(c23)C1=O` is 0.1776; for `O=C(O)C1CSCN1` (stereo unspecified) [TIMONACIC] it is 0.2596. In the case of `CSc1ccc(C(=O)c2[nH]c(=O)[nH]c2C)cc1` [ENOXIMONE], the Hit score worked out at 0.08738. With `O=C(CC1NCCCC1O)Cn1cnc2cc(Br)c(Cl)cc2c1=O` (stereo unspecified) [HALOFUGINONE], the Hit score was 0.1357. Turning to `Cn1c(=O)c2c(ncn2CC(=O)O)n(C)c1=O` [ACEFYLLINE], the Hit score amounted to 0.1779. `CCCCCCCCCCC[C@@H](C[C@@H]1OC(=O)[C@H]1CCCCCC)OC(=O)[C@H](CC(C)C)NC=O` [ORLISTAT] yielded a Hit score of 0.2509. As for `CC1(C)CCC(CN2CCN(c3ccc(C(=O)NS(=O)(=O)c4ccc(NCC5CCOCC5)c([N+](=O)[O-])c4)c(Oc4cnc5[nH]ccc5c4)c3)CC2)=C(c2ccc(Cl)cc2)C1` [VENETOCLAX], the figure is 0.1129; as for `COc1ccc2c(c1)N(C[C@H](C)CN(C)C)c1ccccc1S2` [LEVOMEPROMAZINE], -0.08389; as for `C[C@@H]1CN([C@H]2CC[C@](C#N)(c3ccc(F)cc3)CC2)CC[C@]1(C(=O)O)c1ccccc1` [LEVOCABASTINE], 0.1177. Turning to `COc1ccccc1N1CCN(CC(O)COc2cccc3ccccc23)CC1` (stereo unspecified) [NAFTOPIDIL], the Hit score stood at 0.2462.

For `CN1CCCC(CC2c3ccccc3Sc3ccccc32)C1` (stereo unspecified) [METHIXENE], the Hit score was 0.08132. Consider `CCN1C(=O)NC(c2ccccc2)C1=O` (stereo unspecified) [ETHOTOIN], for which the Hit score came to 0.2667.

Molecule `O=c1[nH]cnc2c([C@@H]3N[C@H](CO)[C@@H](O)[C@H]3O)c[nH]c12` [FORODESINE] came in with a Hit score of 0.3013. The figure for `CC(C)(C)C(=O)OCOP(=O)(COCCn1cnc2c(N)ncnc21)OCOC(=O)C(C)(C)C` [ADEFOVIR DIPIVOXIL] is 0.1661; for `CCOc1ccc(Cc2cc([C@@H]3O[C@H](SC)[C@@H](O)[C@H](O)[C@H]3O)ccc2Cl)cc1` [SOTAGLIFLOZIN] it is 0.2293. In the case of `CO/N=C(\C(=O)N[C@@H]1C(=O)N2C(C(=O)O)=C(CSc3nnnn3C)CS[C@H]12)c1csc(N)n1` [CEFMENOXIME], the Hit score is 0.1641.

Molecule `COc1cc(OC)c(C(=O)CCCN2CCCC2)c(OC)c1` [BUFLOMEDIL] displayed a Hit score of 0.1285. As for `CCc1cc2c(s1)-n1c(C)nnc1CN=C2c1ccccc1Cl` [ETIZOLAM], the figure is 0.2234; as for `CCC(=O)c1ccc(O)cc1` [PAROXYPROPIONE], 0.1593. Consider `Cn1ccnc1S` [METHIMAZOLE], for which the Hit score is on record as -0.01566. On to `CS(=O)(=O)CCNCc1ccc(-c2ccc3ncnc(Nc4ccc(OCc5cccc(F)c5)c(Cl)c4)c3c2)o1` [LAPATINIB], for which the Hit score is 0.09821. As for `CC(C)=CCC[C@](C)(O)[C@H]1CC[C@]2(C)[C@@H]1[C@H](O)C[C@@H]1[C@@]3(C)CC[C@H](O[C@@H]4O[C@H](CO)[C@@H](O)[C@H](O)[C@H]4O[C@@H]4O[C@H](CO)[C@@H](O)[C@H](O)[C@H]4O)C(C)(C)[C@@H]3CC[C@]12C`, the figure is 0.1968.
